These results are taken from paper PMC7862700.

Sequences of proteins named here, by UniProt entry; tags and fusion partners are left off. A change or cut given only in a name is not applied to a line headed by its entry.
UniProt Q00613: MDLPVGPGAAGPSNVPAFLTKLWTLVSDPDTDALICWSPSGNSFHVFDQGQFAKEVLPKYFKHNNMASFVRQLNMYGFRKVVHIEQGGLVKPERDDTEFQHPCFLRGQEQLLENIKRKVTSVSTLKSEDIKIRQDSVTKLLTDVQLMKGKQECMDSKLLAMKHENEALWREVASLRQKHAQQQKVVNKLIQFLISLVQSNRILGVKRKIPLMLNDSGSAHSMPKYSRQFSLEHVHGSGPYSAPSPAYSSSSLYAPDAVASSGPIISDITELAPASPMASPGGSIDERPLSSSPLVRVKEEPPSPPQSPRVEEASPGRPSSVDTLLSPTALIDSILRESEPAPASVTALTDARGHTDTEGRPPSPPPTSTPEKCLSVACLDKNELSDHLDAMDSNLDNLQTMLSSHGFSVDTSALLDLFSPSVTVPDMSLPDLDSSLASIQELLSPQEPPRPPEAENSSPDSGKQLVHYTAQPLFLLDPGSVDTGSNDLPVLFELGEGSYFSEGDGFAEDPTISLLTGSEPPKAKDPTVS

One test has as its target HSF1 (UniProt Q00613). Kind of test: DAPPL (digital affinity profiling via proximity ligation, sequencing). The settings on record: 10 mM Tris-HCl pH 7.5, 50 mM NaCl, 1 mM DTT, 4% glycerol, room temperature, 30 min; GST-TFs on glutathione beads, 16-mer random dsDNA library, 0.1% …; high values mean tight binding; double strand, one strand shown; scale: fold enrichment (6-mer frequency, TF over GST control).

For another test, the target named is T1, ELF2 (UniProt Q15723).
T1 sequence: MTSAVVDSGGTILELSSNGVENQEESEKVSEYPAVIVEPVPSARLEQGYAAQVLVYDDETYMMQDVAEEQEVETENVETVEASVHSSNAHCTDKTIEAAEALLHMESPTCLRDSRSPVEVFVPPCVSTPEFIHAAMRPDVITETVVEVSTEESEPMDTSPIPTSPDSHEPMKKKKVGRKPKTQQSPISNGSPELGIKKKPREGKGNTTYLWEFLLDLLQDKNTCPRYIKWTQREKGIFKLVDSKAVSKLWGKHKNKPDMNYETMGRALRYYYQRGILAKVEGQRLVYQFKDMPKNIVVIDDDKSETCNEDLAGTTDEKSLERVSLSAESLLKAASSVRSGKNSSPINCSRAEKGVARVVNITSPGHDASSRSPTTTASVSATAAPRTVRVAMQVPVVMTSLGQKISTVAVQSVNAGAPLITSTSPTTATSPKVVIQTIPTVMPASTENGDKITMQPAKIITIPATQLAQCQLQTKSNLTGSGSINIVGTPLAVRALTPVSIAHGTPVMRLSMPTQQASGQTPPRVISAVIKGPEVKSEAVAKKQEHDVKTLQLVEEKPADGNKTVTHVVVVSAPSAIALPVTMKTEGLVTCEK
Described as above. The settings on record: 10 mM Tris-HCl pH 7.5, 50 mM NaCl, 1 mM DTT, 4% glycerol, room temperature, 30 min; GST-TFs on glutathione beads, 16-mer random dsDNA library, 0.1% …; high values mean tight binding; double strand, one strand shown; scale: fold enrichment (6-mer frequency, TF over GST control).

Only a part is listed here, and it is no random draw. For part of these data: At the low end of the ranking the order means little. Some of the results follow. For part of these data: The source does not settle which construct or isoform was used.

In the case of GGACAA, the binding signal with HSF1 was 0.709; with ELF2, 0.809.
Consider ATAGGA, for which the binding signal with HSF1 was determined as 0.789; with ELF2 it was 0.918.
Take AGACGT: the binding signal came to 0.486 in the test with HSF1 and 0.445 with ELF2.
For GAGATA, the figures for the binding signal with HSF1 and in the test with ELF2 were 0.82 and 0.62, respectively.
Turning to AGAGCG, the binding signal in the test with HSF1 came to 0.418; with ELF2, 0.458.
GGCCAA: the binding signal with HSF1 is 0.725; with ELF2, 0.779.
Taken in the same sequence, the figures for ACACGT were 0.698 and 0.783.
CGTCAG: the results for the binding signal in the test with HSF1 and with ELF2 were 0.677 and 0.834, respectively.
As to AGTTGA, the binding signal with HSF1 was 0.677; with ELF2 it was 0.794.
As for GGTCAG, the binding signal was 0.427 with HSF1 and 0.529 in the test with ELF2.
Taken in the same sequence, the figures for GCGGGC were 0.535 and 0.699.
Taken in the same sequence, the figures for TAGGCG were 0.649 and 0.618.
On the same counts, the results for TCGTGG are 0.706 and 0.687.
For GGCCGC, the binding signal with HSF1 was 0.639; with ELF2, 0.756.
As for CAGTGG, the binding signal with HSF1 is 0.448; in the test with ELF2, 0.437.
With CAGGCC, the binding signal with HSF1 was determined as 0.612; with ELF2, 0.679.
Taken in the same sequence, the figures for TCAGAG were 0.755 and 0.693.
Regarding GGAGGT, the binding signal in the test with HSF1 came out at 0.292; in the test with ELF2 it was 0.346.
Take GAGTGC: the figures for the binding signal in the test with HSF1 and with ELF2 were 0.573 and 0.664, respectively.
As to CAGGTC, the binding signal in the test with HSF1 worked out at 0.545; with ELF2, 0.654.
GGGCGT: the binding signal with HSF1 stood at 0.401; in the test with ELF2, 0.467.
Turning to GCGCTG, the binding signal with HSF1 is 0.681; in the test with ELF2, 0.813.
As for GCCGTG, the binding signal in the test with HSF1 is 0.232; with ELF2, 0.239.
TCAGTC: the binding signal with HSF1 came out at 0.572; with ELF2, 0.576.
As to AGTGGA, the binding signal with HSF1 came out at 0.698; with ELF2, 0.755.
For the sequence AGAGAC, the binding signal with HSF1 was found to be 0.504; in the test with ELF2, 0.493.
On to CACGTG, for which the binding signal in the test with HSF1 was found to be 0.562; with ELF2, 0.58.
Regarding GCTTGA, the binding signal stood at 0.811 with HSF1 and 0.862 in the test with ELF2.
On to GGGCCC, for which the binding signal in the test with HSF1 is 0.585; with ELF2 it was 0.745.
As to GCACCG, the binding signal amounted to 0.556 with HSF1 and 0.729 in the test with ELF2.
As to GGCGAC, the binding signal is 0.633 in the test with HSF1 and 0.703 with ELF2.
Taken in the same sequence, the figures for AGGTGA were 0.48 and 0.517.
Taken in the same sequence, the figures for TGCCGT were 0.727 and 0.791.
GCGGTA: the figures for the binding signal with HSF1 and with ELF2 were 0.598 and 0.762, respectively.
Turning to AGAGTC, the binding signal with HSF1 turned out to be 0.447; in the test with ELF2, 0.42.
For the sequence AAGGAC, the binding signal with HSF1 is 0.765; in the test with ELF2 it was 0.839.
On the same counts, the results for GACAAC are 0.713 and 0.911.
Turning to AGACGG, the figures for the binding signal with HSF1 and with ELF2 were 0.342 and 0.379, respectively.
AGCCAA: the binding signal stood at 0.82 with HSF1 and 0.863 with ELF2.
Turning to CAAGGC, the binding signal with HSF1 was found to be 0.715; with ELF2 it was 0.838.
In the case of GTCATC, the binding signal with HSF1 is 0.684; with ELF2, 0.848.
As for GCGTGC, the figures for the binding signal with HSF1 and in the test with ELF2 were 0.648 and 0.713, respectively.
On to GTCGTA, for which the binding signal with HSF1 is 0.525; with ELF2, 0.575.
With GGAGGA, the binding signal with HSF1 turned out to be 0.231; with ELF2, 0.26.
Take GGGTGT: the binding signal with HSF1 worked out at 0.619; with ELF2, 0.683.
Turning to CCGCGA, the binding signal with HSF1 worked out at 0.727; with ELF2 it was 0.739.
On to GTAGAG, for which the binding signal turned out to be 0.533 in the test with HSF1 and 0.558 with ELF2.
Taken in the same sequence, the figures for CCAGGG were 0.594 and 0.595.
Consider GACGGT, for which the binding signal with HSF1 was found to be 0.416; with ELF2, 0.443.
Taken in the same sequence, the figures for CGAGTG were 0.836 and 0.756.
As for GACGGG, the values for the binding signal in the test with HSF1 and with ELF2 were 0.369 and 0.424, respectively.
On the same counts, the results for GAGGTA are 0.562 and 0.674.
CCGGGA: the figures for the binding signal with HSF1 and with ELF2 were 0.392 and 0.572, respectively.
Turning to TGCAGG, the binding signal with HSF1 stood at 0.798; with ELF2, 1.03.
Consider GAGGTC, for which the values for the binding signal with HSF1 and in the test with ELF2 were 0.476 and 0.552, respectively.
For the sequence CAGTGT, the binding signal was found to be 0.584 with HSF1 and 0.653 with ELF2.
Consider CCGTTG, for which the binding signal with HSF1 was determined as 0.704; with ELF2, 0.839.
In the case of GGCCAG, the binding signal in the test with HSF1 came to 0.428; with ELF2 it was 0.432.
As to GGGGGA, the binding signal in the test with HSF1 was determined as 0.548; with ELF2, 0.538.
Take GTGATC: the figures for the binding signal in the test with HSF1 and with ELF2 were 0.758 and 0.786, respectively.
Taken in the same sequence, the figures for GTAAGG were 0.636 and 0.735.
Regarding AGGGAG, the binding signal in the test with HSF1 was 0.335; with ELF2, 0.361.
On to AGAGGA, for which the results for the binding signal in the test with HSF1 and with ELF2 were 0.618 and 0.672, respectively.
Turning to GCGTGA, the binding signal with HSF1 amounted to 0.254; in the test with ELF2 it was 0.279.
Regarding CCATGA, the binding signal with HSF1 came to 0.787; with ELF2 it was 0.797.
In the case of AGGCCT, the values for the binding signal in the test with HSF1 and in the test with ELF2 were 0.898 and 0.862, respectively.
For the sequence CGGCGT, the binding signal with HSF1 is 0.694; with ELF2, 0.834.
GAAGAC: the binding signal with HSF1 is 0.782; with ELF2 it was 1.
Turning to GCCGAG, the binding signal stood at 0.712 in the test with HSF1 and 0.58 with ELF2.
In the case of TCGGGA, the binding signal with HSF1 came to 0.651; with ELF2, 0.377.
CGTGGT: the binding signal in the test with HSF1 was 0.47; with ELF2, 0.575.
On the same counts, the results for GGATCG are 0.622 and 0.578.
In the case of AGTCCG, the binding signal with HSF1 was 0.419; in the test with ELF2, 0.625.
In the case of GAGGGG, the figures for the binding signal in the test with HSF1 and with ELF2 were 0.438 and 0.473, respectively.
Take CAGCAG: the binding signal in the test with HSF1 and in the test with ELF2 was 0.804 throughout.
In the case of GGTAAG, the results for the binding signal with HSF1 and with ELF2 were 0.782 and 0.751, respectively.
For AGTCAT, the binding signal with HSF1 was 0.508; with ELF2, 0.593.
Consider TTGAGT, for which the binding signal was found to be 0.622 with HSF1 and 0.649 with ELF2.
On the same counts, the results for AGGGTC are 0.749 and 0.811.
Taken in the same sequence, the figures for CCAGAG were 0.952 and 0.59.
On to ACGTGA, for which the binding signal came out at 0.261 in the test with HSF1 and 0.246 with ELF2.
With CATGGA, the binding signal in the test with HSF1 turned out to be 0.995; in the test with ELF2, 0.811.
With CGGTGG, the binding signal came to 0.517 with HSF1 and 0.639 with ELF2.
Turning to GAGCAT, the binding signal with HSF1 is 0.785; with ELF2 it was 0.731.
For GTAGTC, the binding signal in the test with HSF1 was 0.547; with ELF2, 0.696.
For the sequence GTTAGG, the binding signal amounted to 0.696 with HSF1 and 0.77 in the test with ELF2.
As to GAGGTG, the binding signal with HSF1 is 0.41; in the test with ELF2, 0.491.
Turning to GAGTCC, the binding signal with HSF1 is 0.353; with ELF2 it was 0.366.
On the same counts, the results for GGTTCG are 0.856 and 0.808.
Regarding GCAGGG, the binding signal with HSF1 was determined as 0.525; in the test with ELF2 it was 0.599.
Taken in the same sequence, the figures for TGGAGC were 0.561 and 0.597.
On the same counts, the results for GTCGCC are 0.61 and 0.848.
TTGGAC: the binding signal came to 0.808 with HSF1 and 0.932 with ELF2.
Taken in the same sequence, the figures for GGCGCT were 0.609 and 0.684.
As for CGTGGG, the binding signal was 0.316 with HSF1 and 0.359 with ELF2.
As to GCGCCA, the binding signal with HSF1 came out at 0.612; with ELF2, 0.74.
AGGGCC: the binding signal was found to be 0.771 with HSF1 and 0.835 with ELF2.
With GGTTGG, the binding signal amounted to 0.568 with HSF1 and 0.733 in the test with ELF2.
Taken in the same sequence, the figures for GTGCAG were 0.582 and 0.712.
As for CTCGGA, the binding signal is 0.894 in the test with HSF1 and 0.817 in the test with ELF2.
For the sequence ACGAGG, the binding signal in the test with HSF1 is 0.673; in the test with ELF2, 0.776.
With CGTGTA, the results for the binding signal in the test with HSF1 and with ELF2 were 0.631 and 0.642, respectively.
In the case of GACCGT, the binding signal in the test with HSF1 is 0.388; in the test with ELF2 it was 0.425.
For GGCCGG, the values for the binding signal in the test with HSF1 and in the test with ELF2 were 0.396 and 0.567, respectively.
As to ATGGAG, the binding signal with HSF1 came to 0.538; in the test with ELF2 it was 0.555.
With GGCAGG, the binding signal in the test with HSF1 was found to be 0.473; with ELF2 it was 0.606.
Regarding GCGGTT, the binding signal was 0.669 in the test with HSF1 and 0.8 with ELF2.
Consider TGGCGG, for which the binding signal in the test with HSF1 amounted to 0.582; with ELF2, 0.786.
Regarding TGGGAG, the figures for the binding signal with HSF1 and with ELF2 were 0.416 and 0.424, respectively.
On to CAGGAG, for which the binding signal with HSF1 worked out at 0.247; with ELF2, 0.253.
In the case of ACCAGT, the binding signal with HSF1 stood at 0.456; with ELF2 it was 0.438.
For GGCCCA, the values for the binding signal in the test with HSF1 and in the test with ELF2 were 0.656 and 0.743, respectively.
As to GTGGGG, the binding signal was 0.487 with HSF1 and 0.551 with ELF2.
Take GTCAAT: the results for the binding signal with HSF1 and with ELF2 were 0.702 and 0.797, respectively.
